The values that follow come from patent publication US20210340205A1.

Sequences of proteins named here, by UniProt entry; tags and fusion partners are left off. A change or cut given only in a name is not applied to a line headed by its entry.
UniProt Q99988: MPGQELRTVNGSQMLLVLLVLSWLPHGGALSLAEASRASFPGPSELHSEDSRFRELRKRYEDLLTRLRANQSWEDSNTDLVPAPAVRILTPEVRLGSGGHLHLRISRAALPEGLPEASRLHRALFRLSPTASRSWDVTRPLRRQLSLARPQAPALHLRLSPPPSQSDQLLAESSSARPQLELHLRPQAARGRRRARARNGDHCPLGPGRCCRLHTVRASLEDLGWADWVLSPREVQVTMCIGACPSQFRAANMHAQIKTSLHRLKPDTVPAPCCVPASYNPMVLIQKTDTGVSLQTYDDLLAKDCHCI

Assay [1] addresses Human cRET(ECD)-Fc (human). The experiment in a line: MSD plate assay of FIG. 5, cRET(ECD)-Fc coated.
Assay [2] addresses Human cRET(ECD)-Fc (human). The experiment in a line: MSD plate assay, cRET(ECD)-Fc coated, streptavidin sulfo-tag detection.

Results are given in words; binding and its absence hold for the method and conditions named. Some results given as binding are weak or reduced against the parent protein; the word gives no strength.

With “His-GDF15(biotin)/GFRAL(ECD)-Fc complex (from UniProt Q99988 197-308)”, the binding result in assay [1] and in assay [2] was “binds” in each case.
